Numbers after ± are expanded uncertainties.
Conditions: 298.15 K; 101.33 kPa; Liquid; Vibrating tube method

## CCO [ethanol]
  mass density: 785.06 ± 0.12 kg/m3
